Here are results for four substances from article PMC10450186.

The chains behind the UniProt entries cited, without tags or fusion partners.
UniProt P15927: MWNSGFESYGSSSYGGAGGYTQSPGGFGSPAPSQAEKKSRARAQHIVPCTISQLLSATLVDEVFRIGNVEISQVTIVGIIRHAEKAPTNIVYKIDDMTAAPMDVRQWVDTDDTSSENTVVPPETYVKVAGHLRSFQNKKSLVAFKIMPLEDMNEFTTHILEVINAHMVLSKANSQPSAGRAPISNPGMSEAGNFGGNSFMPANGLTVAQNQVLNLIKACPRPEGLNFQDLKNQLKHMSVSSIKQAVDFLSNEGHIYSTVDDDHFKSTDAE

One assay has as its target T1, FLAG-NSMF-ΔD2 (HeLa) (UniProt Q6X4W1).
T1 sequence: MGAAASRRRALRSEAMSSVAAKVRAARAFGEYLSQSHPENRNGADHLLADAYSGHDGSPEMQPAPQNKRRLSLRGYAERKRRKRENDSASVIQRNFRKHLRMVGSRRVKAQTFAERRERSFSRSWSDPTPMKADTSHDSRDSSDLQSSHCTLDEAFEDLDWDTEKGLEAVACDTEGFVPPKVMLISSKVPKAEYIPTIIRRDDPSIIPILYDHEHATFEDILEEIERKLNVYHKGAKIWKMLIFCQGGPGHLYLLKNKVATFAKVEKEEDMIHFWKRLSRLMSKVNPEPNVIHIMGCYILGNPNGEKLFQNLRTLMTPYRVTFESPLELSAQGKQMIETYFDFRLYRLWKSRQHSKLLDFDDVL
Briefly: co-IP; HeLa cells transfected with FLAG-NSMF WT or ΔD2; details in the Supplementary Data.

The target of assay [1] is T2, full-length NSMF tagged with 3×FLAG at the N-terminus and eGFP at the C-terminus, purified (UniProt Q6X4W1).
T2 sequence: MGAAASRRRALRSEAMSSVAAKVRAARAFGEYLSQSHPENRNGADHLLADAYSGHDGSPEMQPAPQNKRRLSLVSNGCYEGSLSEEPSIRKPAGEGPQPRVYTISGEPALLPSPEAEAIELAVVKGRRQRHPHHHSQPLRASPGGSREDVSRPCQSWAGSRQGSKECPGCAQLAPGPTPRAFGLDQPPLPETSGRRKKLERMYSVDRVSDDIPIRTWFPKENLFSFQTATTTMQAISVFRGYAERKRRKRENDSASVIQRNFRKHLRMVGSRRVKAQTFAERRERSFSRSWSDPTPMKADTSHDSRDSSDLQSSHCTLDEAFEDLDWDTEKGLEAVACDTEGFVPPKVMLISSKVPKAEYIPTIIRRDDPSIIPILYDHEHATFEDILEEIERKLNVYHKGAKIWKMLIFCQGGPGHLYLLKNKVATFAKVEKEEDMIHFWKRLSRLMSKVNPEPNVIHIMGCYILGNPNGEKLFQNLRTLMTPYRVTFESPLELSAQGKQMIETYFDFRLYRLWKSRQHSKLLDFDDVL
Briefly: co-IP; in vitro IP of purified proteins: incubated in NETN buffer at 4°C for 1 h, anti-GFP-coupled protein G agarose, western blotting of RPA subunits; both purified. For orientation: Immunoblotting shows a protein as a band on a membrane.

Results are given in words; binding and its absence hold for the method and conditions named. For some of these results: Binding seen in cells or lysates may run through a third protein. Tags and fused reporters may be left off the sequences shown. Some results given as binding are weak or reduced against the parent protein; the word gives no strength.

“RPA32, endogenous (from UniProt P15927 1-270)”: the binding result in the assay with FLAG-NSMF-ΔD2 (HeLa) is “no binding”.
“RPA trimer consisting of the RPA70, RPA32 and RPA14 subunits, purified (from UniProt P27694 1-616; P15927 1-270; P35244 1-121) (complex)”: the binding entry in assay [1] is “binds”.
As for “purified RPA70 subunit (purchased) (from UniProt P27694 1-616)”, the binding entry in assay [1] is on record as “no binding”.
Still for that read-out and setting: the result for “individual RPA32 subunit, purified (from UniProt P15927 1-270) (other; other documents disagree on this pair)” reads “no binding”.
